Measurements: article PMC12096822
No constants are given. Whether binding was seen depends on the method and setting. In cells and extracts the contact can be indirect. Binding calls can cover weak binding; strength is not graded here.

Sequences of proteins named here, by UniProt entry; tags and fusion partners are left off.
UniProt G3XCV0: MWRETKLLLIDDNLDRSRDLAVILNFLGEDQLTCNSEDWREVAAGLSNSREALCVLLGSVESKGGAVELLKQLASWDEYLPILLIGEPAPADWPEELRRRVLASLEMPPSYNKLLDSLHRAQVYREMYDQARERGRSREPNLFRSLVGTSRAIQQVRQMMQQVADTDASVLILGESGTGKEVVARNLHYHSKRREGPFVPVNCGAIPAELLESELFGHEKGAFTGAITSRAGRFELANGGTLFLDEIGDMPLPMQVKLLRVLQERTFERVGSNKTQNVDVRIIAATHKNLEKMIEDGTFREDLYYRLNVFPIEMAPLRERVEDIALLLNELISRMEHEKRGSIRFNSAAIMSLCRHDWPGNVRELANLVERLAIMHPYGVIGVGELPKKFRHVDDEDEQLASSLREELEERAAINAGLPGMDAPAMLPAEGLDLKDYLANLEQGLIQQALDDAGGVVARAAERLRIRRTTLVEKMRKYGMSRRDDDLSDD

How the values were obtained:
[1] = biological target: V5-tagged FleQ (full-length transcriptional regulator FleQ) (Pseudomonas aeruginosa) (UniProt G3XCV0); assay: co-IP; 2 mg total cellular protein extract of P. aeruginosa co-producing V5-tagged FleQ and HA-tagged SagS; V5-tagged FleQ precipitated with immobilized anti-V5 antibodies (2 µg/mL); immunoblot with anti-HA antibodies
[2] = biological target: HA-tagged SagS (orphan sensor / sensor-regulator hybrid SagS) (Pseudomonas aeruginosa) (UniProt Q9I019); assay: co-IP; 2 mg total cellular protein extract of P. aeruginosa co-producing V5-tagged FleQ and HA-tagged SagS; HA-tagged SagS precipitated with immobilized anti-HA antibodies; immunoblot with anti-V5 antibodies

Row | Substance | binding [1] | binding [2]
1 | HA-tagged SagS (orphan sensor / sensor-regulator hybrid SagS) (from UniProt Q9I019) | binds | 
2 | V5-tagged FleQ (full-length transcriptional regulator FleQ) (from UniProt G3XCV0 1-490) |  | binds
